Data as given in PubChem BioAssay AID504784 (Drosophila RNAi Screening Center, 2011).
In all, the deposit lists about 17,000 reagents; below is a random part of those that have a named target and a result. 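Each column is one replicate's B-score; the combined score over replicates was not deposited, so single values may mislead.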 Further read-outs or replicates are left out here.

- Test: 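Genome-wide knock-down for genes giving too much or too little stored lipid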 (primary screen)
- Cell system: Drosophila Kc167 embryonic cells
- Reagents: long dsRNA against Drosophila genes, about 250 ng dsRNA per well
- Duration: 4 days
- Challenge: cells fed 400 µM oleic acid bound to BSA
- Measured: 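Microscope images give a droplet-to-nucleus area ratio, taken as log and converted to a screen-wide B-score; higher values mean greater lipid storage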
- Reading the numbers: droplet/nuclear area B-score: higher = more stored lipid (overstorage)

droplet/nuclear area B-score, replicate 1, by target gene and reagent
Arp1 (Actin-related protein 1): SID104193910 2.74
yellow-e3: SID104194962 -2.16
Cp190 (Centrosomal protein 190kD): SID104196399 -0.00357
Mlp60A (Muscle LIM protein at 60A): SID104184415 0.216; SID104201761 -2.32; SID104201936 0.48
CG13599: SID104194394 0.868
rpr (reaper): SID104191182 0.387
CG12081: SID104197594 0.917
mRpL55 (mitochondrial ribosomal protein L55): SID104194556 2.6
CG33217: SID104202266 1.17
CG32119: SID104189040 0.614; SID104201200 -1.11
CG9586: SID104183062 -0.462
CG13801: SID104188127 -0.698
cup: SID104183308 -0.793
Ir68a (Ionotropic receptor 68a): SID104190391 -0.00856
Ugt303B1 (UDP-glycosyltransferase family 303 member B1): SID104194933 0.0287
Tollo: SID104191097 -1.83
CG31386 (retired record): SID104202133 0.556; SID104202543 -0.318
CG8086: SID104182870 -0.0318; SID104182871 -0.0548
Ibf1 (Insulator binding factor 1): SID104196211 0.883
CG3061: SID104195252 0.0325
PPO2 (Prophenoloxidase 2): SID104186894 0.0768
dlg1 (discs large 1): SID104198688 0.414; SID104199559 -0.121; SID104200116 -0.092
CG7016: SID104195966 -1.49
CG31781 (retired record): SID104182223 1.07; SID104182224 -0.222
St3 (Sulfotransferase 3): SID104184297 0.0518
CG42254 (retired record): SID104185986 -1.04

3 entries already listed, arranged by “droplet/nuclear area B-score, replicate 1”, highest first.
target gene	PubChem SID	droplet/nuclear area B-score, replicate 1
CG33217	SID104202266	1.17
CG32119	SID104189040	0.614
CG32119	SID104201200	-1.11
